# Test results from article PMC10639076.
# Results are given in words; binding and its absence hold for the method and conditions named. Binding seen in cells or lysates may run through a third protein. Here binding means that the protein was enriched with, or labelled near, the bait; the list need not be complete.
# B1: ATF7IP (protein, UniProt Q6VMQ6 1-1270)
# chain: MDSLEEPQKKVFKARKTMRVSDRQQLEAVYKVKEELLKTDVKLLNGNHENGDLDPTSPLENMDYIKDKEEVNGIEEICFDPEGSKAEWKETPCILSVNVKNKQDDDLNCEPLSPHNITPEPVSKLPAEPVSGDPAPGDLDAGDPASGVLASGDSTSGDPTSSEPSSSDAASGDATSGDAPSGDVSPGDATSGDATADDLSSGDPTSSDPIPGEPVPVEPISGDCAADDIASSEITSVDLASGAPASTDPASDDLASGDLSSSELASDDLATGELASDELTSESTFDRTFEPKSVPVCEPVPEIDNIEPSSNKDDDFLEKNGADEKLEQIQSKDSLDEKNKADNNIDANEETLETDDTTICSDRPPENEKKVEEDIITELALGEDAISSSMEIDQGEKNEDETSADLVETINENVIEDNKSENILENTDSMETDEIIPILEKLAPSEDELTCFSKTSLLPIDETNPDLEEKMESSFGSPSKQESSESLPKEAFLVLSDEEDISGEKDESEVISQNETCSPAEVESNEKDNKPEEEEQVIHEDDERPSEKNEFSRRKRSKSEDMDNVQSKRRRYMEEEYEAEFQVKITAKGDINQKLQKVIQWLLEEKLCALQCAVFDKTLAELKTRVEKIECNKRHKTVLTELQAKIARLTKRFEAAKEDLKKRHEHPPNPPVSPGKTVNDVNSNNNMSYRNAGTVRQMLESKRNVSESAPPSFQTPVNTVSSTNLVTPPAVVSSQPKLQTPVTSGSLTATSVLPAPNTATVVATTQVPSGNPQPTISLQPLPVILHVPVAVSSQPQLLQSHPGTLVTNQPSGNVEFISVQSPPTVSGLTKNPVSLPSLPNPTKPNNVPSVPSPSIQRNPTASAAPLGTTLAVQAVPTAHSIVQATRTSLPTVGPSGLYSPSTNRGPIQMKIPISAFSTSSAAEQNSNTTPRIENQTNKTIDASVSKKAADSTSQCGKATGSDSSGVIDLTMDDEESGASQDPKKLNHTPVSTMSSSQPVSRPLQPIQPAPPLQPSGVPTSGPSQTTIHLLPTAPTTVNVTHRPVTQVTTRLPVPRAPANHQVVYTTLPAPPAQAPLRGTVMQAPAVRQVNPQNSVTVRVPQTTTYVVNNGLTLGSTGPQLTVHHRPPQVHTEPPRPVHPAPLPEAPQPQRLPPEAASTSLPQKPHLKLARVQSQNGIVLSWSVLEVDRSCATVDSYHLYAYHEEPSATVPSQWKKIGEVKALPLPMACTLTQFVSGSKYYFAVRAKDIYGRFGPFCDPQSTDVISSTQSS
# Biological target: Flag-tagged VHL (human) (UniProt P40337)
# Test: affinity purification with mass spectrometry; whole cell lysates of RCC4 cells stably expressing Flag-VHL and control, immunoprecipitated with anti-Flag antibodies, LC-MS/MS
binder,measurement,value
B1,binding,binds
